# Data as given in the supplement of paper PMC9135407.
# Several values for one entry are separate records, joined by “and”; a condition that tells them apart may be missing. Equal values may be shown once. Where a name gives a salt, the structure may show the parent alone. ± gives the standard deviation of the averaged measurements. The list shows a part of the results. Plates or batches differ in their baseline, so values are only roughly comparable.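 Culture-activated primary human stellate myofibroblasts, where regained lipid droplets signal inactivation. Value: share of Hoechst-counted cells above a per-plate Bodipy cutoff, in duplicate wells, with DMSO negative and nortriptyline positive controls on each plate. Hits: a control-normalized score above the plate's top-tenth-percentile nortriptyline wells, or one of a plate's three best wells. Final well concentrations are not given.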
# Tested on: primary human hepatic stellate cells (donor 1)
# Experiment: percent Bodipy-positive cells; higher = more lipid droplet accumulation
# Settings: 48 h
# [1] = library stock concentration: 10 mM
# [2] = library stock concentration: 80 uM
# [3] = library stock concentration: 400 uM
# [4] = library stock concentration: 2 mM
# [5] = library stock concentration: 3.33 mM
# [6] = library stock concentration: 1 mM
structure (smiles),measurement,setting,value
CC(C)(C)c1cc(C=C(C#N)C#N)cc(C(C)(C)C)c1O [Tyrphostin 9],percent Bodipy-positive cells,[1],90.4 ± 2.9%
CC(C)=CCC[C@]1(C)C=Cc2c(O)c3c(c(CC=C(C)C)c2O1)O[C@]12C(=C[C@@H]4C[C@H]1C(C)(C)O[C@@]2(C/C=C(/C)C(=O)O)C4=O)C3=O [Gambogic acid],percent Bodipy-positive cells,[1],100%
CCNC(=O)C[C@@H]1N=C(c2ccc(Cl)cc2)c2cc(OC)ccc2-n2c(C)nnc21,percent Bodipy-positive cells,[2],41 ± 1.6%
same,percent Bodipy-positive cells,[3],44.3 ± 20%
same,percent Bodipy-positive cells,[4],59.8 ± 13%
same,percent Bodipy-positive cells,[5],35 ± 7.3%
same,percent Bodipy-positive cells,[1],56.1% and 60.8%
NCCc1cc(O)c(O)cc1O [Oxidopamine hydrochloride],percent Bodipy-positive cells,library stock concentration: 9.7 mM,1.36 ± 1.2%
same,percent Bodipy-positive cells,[1],8.91 ± 3.5%
COc1ccc(C[C@H]2NC[C@H](O)[C@H]2OC(C)=O)cc1 [Anisomycin],percent Bodipy-positive cells,,88.9 ± 2.7%
C[N+](C)(C)CCCCCCCCCC[N+](C)(C)C [Decamethonium Bromide],percent Bodipy-positive cells,[5],8.03 ± 0.88%
same,percent Bodipy-positive cells,[1],22.5 ± 5.9%
C[N+](C)(C)CCCCCCCCCC[N+](C)(C)C [Decamethonium bromide],percent Bodipy-positive cells,,4.89 ± 0.47%
same,percent Bodipy-positive cells,library stock concentration: 4.8 mM,2.8 ± 0.46%
C[N+](C)(C)CCCCCCCCCC[N+](C)(C)C [Decamethonium dibromide],percent Bodipy-positive cells,[1],44 ± 16%
c1ccc2nc(N3CCNCC3)ccc2c1 [Quipazine maleate],percent Bodipy-positive cells,library stock concentration: 6.1 mM,39.4 ± 3%
c1ccc2nc(N3CCNCC3)ccc2c1 [Quipazine dimaleate salt],percent Bodipy-positive cells,,56.7 ± 8.8%
c1ccc2nc(N3CCNCC3)ccc2c1 [Quipazine dimaleate],percent Bodipy-positive cells,[1],25 ± 3.8%
CN1C[C@H](C(=O)N[C@]2(C)O[C@@]3(O)[C@@H]4CCCN4C(=O)[C@H](Cc4ccccc4)N3C2=O)C[C@@H]2c3cccc4[nH]cc(c34)C[C@H]21 [Dihydroergotamine tartrate],percent Bodipy-positive cells,,41.9 ± 7.2%
CN1C[C@H](C(=O)N[C@]2(C)O[C@@]3(O)[C@@H]4CCCN4C(=O)[C@H](Cc4ccccc4)N3C2=O)C[C@@H]2c3cccc4[nH]cc(c34)C[C@H]21 [Dihydroergotamine mesylate],percent Bodipy-positive cells,library stock concentration: 2.9 mM,5.09 ± 6.6%
same,percent Bodipy-positive cells,[1],28.8% and 24.4%
O=C1NCN(c2ccccc2)C12CCN(CC1COc3ccccc3O1)CC2 (stereo not drawn) [Spiroxatrine],percent Bodipy-positive cells,library stock concentration: 5.3 mM,12.1 ± 4.2%
"CC1C2Cc3ccc(O)cc3C1(C)CCN2CC1CC1 (single isomer, unassigned; (+)) [(+)-Cyclazocine]",percent Bodipy-positive cells,[1],71.49 ± 0.66%
C[N+]1(C)[C@@H]2CC[C@H]1C[C@@H](OC(=O)C(CO)c1ccccc1)C2 (stereo partly drawn) [Methylatropine nitrate],percent Bodipy-positive cells,,8.64 ± 1.6%
C[N+]1(C)[C@@H]2CC[C@H]1C[C@@H](OC(=O)C(CO)c1ccccc1)C2 (stereo partly drawn) [Atropine methyl bromide],percent Bodipy-positive cells,[1],50.6 ± 16%
C[N+]1(C)[C@@H]2CC[C@H]1C[C@@H](OC(=O)C(CO)c1ccccc1)C2 (stereo partly drawn) [Atropine methyl nitrate],percent Bodipy-positive cells,[1],51.7 ± 15%
NC1(c2ccccc2Cl)CCCCC1=O (stereo not drawn) [Norketamine hydrochloride],percent Bodipy-positive cells,[1],6.43 ± 3.7%
Cl.Cl.Fc1ccc(C(OCCN2CCN(CCCc3ccccc3)CC2)c2ccc(F)cc2)cc1,percent Bodipy-positive cells,,84.3 ± 3.8%
O=C1NC(=O)c2c1c1c3ccccc3[nH]c1c1[nH]c3ccccc3c21 [Arcyriaflavin A],percent Bodipy-positive cells,[1],35.3 ± 3.5%
CC(CCc1ccccc1)NC(C)C(O)c1ccc(O)cc1 (stereo not drawn) [Nylidrin hydrochloride],percent Bodipy-positive cells,library stock concentration: 6 mM,19.3 ± 0.69%
COc1cccc(C2(O)CCCCC2CN(C)C)c1 (stereo not drawn) [Tramadol hydrochloride],percent Bodipy-positive cells,library stock concentration: 6.7 mM,15.4 ± 2.9%
COc1cccc(C2(O)CCCCC2CN(C)C)c1 (stereo not drawn) [Tramadol],percent Bodipy-positive cells,[1],7.35 ± 0.76%
COc1cccc(C2(O)CCCCC2CN(C)C)c1 (stereo not drawn) [Tramadol HCl],percent Bodipy-positive cells,library stock concentration: 7.6 mM,10.1 ± 1.3%
CC(=O)OC1CN2CCC1CC2 (stereo not drawn),percent Bodipy-positive cells,[1],36.1 ± 8.2%
CCCN(C/C=C/I)C1CCc2ccc(O)cc2C1 (stereo not drawn) [7-Hydroxy-PIPAT maleate],percent Bodipy-positive cells,[1],23.4 ± 5.4%
N=C(N)c1ccc(CS(=O)(=O)F)cc1 [4-Amidinophenylmethanesulfonyl fluoride hydrochloride],percent Bodipy-positive cells,[1],29.1 ± 0.45%
"Cc1c(C(=O)c2cccc3ccccc23)c2cccc3c2n1[C@H](CN1CCOCC1)CO3 [WIN 55,212-2 mesylate]",percent Bodipy-positive cells,[6],8.24 ± 9.2%
CCCCC/C=C\C/C=C\C/C=C\C/C=C\CCCC(=O)NCCF [Arachidonoyl-2'-Fluoroethylamide],percent Bodipy-positive cells,[6],9.73 ± 2.3%
O=C(O)CNC(=O)c1c(O)c2ccccc2n(Cc2ccccc2)c1=O,percent Bodipy-positive cells,[2],32 ± 5%
same,percent Bodipy-positive cells,[3],25.8 ± 1.5%
same,percent Bodipy-positive cells,[4],29.7 ± 5.1%
same,percent Bodipy-positive cells,[5],13.8 ± 0.44%
same,percent Bodipy-positive cells,[1],30.1% and 32.3%

# Given bar-delimited: entries from further up.
structure (smiles) | measurement | setting | value
CC(C)(C)c1cc(C=C(C#N)C#N)cc(C(C)(C)C)c1O [Tyrphostin 9] | percent Bodipy-positive cells | [1] | 90.4 ± 2.9%
NCCc1cc(O)c(O)cc1O [Oxidopamine hydrochloride] | percent Bodipy-positive cells | [1] | 8.91 ± 3.5%
CN1C[C@H](C(=O)N[C@]2(C)O[C@@]3(O)[C@@H]4CCCN4C(=O)[C@H](Cc4ccccc4)N3C2=O)C[C@@H]2c3cccc4[nH]cc(c34)C[C@H]21 [Dihydroergotamine tartrate] | percent Bodipy-positive cells |  | 41.9 ± 7.2%
O=C1NCN(c2ccccc2)C12CCN(CC1COc3ccccc3O1)CC2 (stereo not drawn) [Spiroxatrine] | percent Bodipy-positive cells | library stock concentration: 5.3 mM | 12.1 ± 4.2%
Cl.Cl.Fc1ccc(C(OCCN2CCN(CCCc3ccccc3)CC2)c2ccc(F)cc2)cc1 | percent Bodipy-positive cells |  | 84.3 ± 3.8%
O=C1NC(=O)c2c1c1c3ccccc3[nH]c1c1[nH]c3ccccc3c21 [Arcyriaflavin A] | percent Bodipy-positive cells | [1] | 35.3 ± 3.5%
COc1cccc(C2(O)CCCCC2CN(C)C)c1 (stereo not drawn) [Tramadol] | percent Bodipy-positive cells | [1] | 7.35 ± 0.76%
CC(=O)OC1CN2CCC1CC2 (stereo not drawn) | percent Bodipy-positive cells | [1] | 36.1 ± 8.2%
CCCN(C/C=C/I)C1CCc2ccc(O)cc2C1 (stereo not drawn) [7-Hydroxy-PIPAT maleate] | percent Bodipy-positive cells | [1] | 23.4 ± 5.4%
N=C(N)c1ccc(CS(=O)(=O)F)cc1 [4-Amidinophenylmethanesulfonyl fluoride hydrochloride] | percent Bodipy-positive cells | [1] | 29.1 ± 0.45%
O=C(O)CNC(=O)c1c(O)c2ccccc2n(Cc2ccccc2)c1=O | percent Bodipy-positive cells | [4] | 29.7 ± 5.1%
